For this test, the target named is T1, Ubiquitin-specific protease 1 (UniProt O94782).
T1 sequence: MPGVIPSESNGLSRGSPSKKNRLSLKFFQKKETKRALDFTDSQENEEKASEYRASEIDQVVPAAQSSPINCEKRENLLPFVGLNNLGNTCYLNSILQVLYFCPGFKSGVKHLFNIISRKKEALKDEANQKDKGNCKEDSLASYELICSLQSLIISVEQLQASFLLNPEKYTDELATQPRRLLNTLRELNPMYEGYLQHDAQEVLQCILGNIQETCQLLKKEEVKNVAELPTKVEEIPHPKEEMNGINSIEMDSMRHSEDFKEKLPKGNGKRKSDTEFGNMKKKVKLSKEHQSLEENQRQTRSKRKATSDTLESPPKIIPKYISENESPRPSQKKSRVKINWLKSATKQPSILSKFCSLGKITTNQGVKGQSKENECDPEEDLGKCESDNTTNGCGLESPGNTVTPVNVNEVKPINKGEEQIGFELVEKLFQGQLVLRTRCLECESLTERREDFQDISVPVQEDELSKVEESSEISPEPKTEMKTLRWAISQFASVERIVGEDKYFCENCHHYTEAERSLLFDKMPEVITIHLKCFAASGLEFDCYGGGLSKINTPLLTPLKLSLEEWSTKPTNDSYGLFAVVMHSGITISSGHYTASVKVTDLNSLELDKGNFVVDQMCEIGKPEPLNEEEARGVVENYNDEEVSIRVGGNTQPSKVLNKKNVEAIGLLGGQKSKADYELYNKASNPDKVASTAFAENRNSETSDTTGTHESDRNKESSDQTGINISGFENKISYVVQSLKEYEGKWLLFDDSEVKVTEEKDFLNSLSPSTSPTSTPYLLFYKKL
Briefly: co-IP; HEK293 cells lysed in NP-40 lysis buffer (20 mM Tris-HCl pH 7.4, 150 mM NaCl, 1% NP-40) with protease inhibitor cocktail; supernatant incubated with the indicated antibodies and protein A/G magarose beads overnight at 4 °C; beads washed 3 times with lysis buffer; detection by Western ….

Sequences of proteins named here, by UniProt entry; tags and fusion partners are left off.
UniProt P01106: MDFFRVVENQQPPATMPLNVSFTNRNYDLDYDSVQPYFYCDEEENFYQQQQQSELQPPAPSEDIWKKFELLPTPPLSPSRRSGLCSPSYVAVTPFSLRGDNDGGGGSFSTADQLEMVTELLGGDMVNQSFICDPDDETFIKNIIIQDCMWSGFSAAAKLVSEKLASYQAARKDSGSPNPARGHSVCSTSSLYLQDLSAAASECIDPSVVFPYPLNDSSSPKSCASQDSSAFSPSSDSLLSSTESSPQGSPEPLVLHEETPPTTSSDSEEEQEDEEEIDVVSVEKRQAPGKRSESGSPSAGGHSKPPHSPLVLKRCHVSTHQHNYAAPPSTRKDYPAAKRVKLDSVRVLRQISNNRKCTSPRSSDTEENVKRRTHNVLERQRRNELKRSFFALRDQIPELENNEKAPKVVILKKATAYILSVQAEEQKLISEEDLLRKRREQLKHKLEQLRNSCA

These are yes or no findings as the source states them, for the method shown. In cells and extracts the contact can be indirect. Some results given as binding are weak or reduced against the parent protein; the word gives no strength.

As for c-MYC (from UniProt P01106 1-454), the binding entry was “binds”.

For the origin of these results see paper PMC11545376.
